Patent publication US20140242068A1 (EMORY UNIVERSITY, published 2014)
Results are given in words; binding and its absence hold for the method and conditions named. Some binding calls cover weakened binding; strength is not graded here. For some assays here: Where a sequence is shown, tags or fusion partners need not be part of it.

T1: murine CAR (epithelial CAR of wounded mouse colon) (mouse) (UniProt P97792)
T1 sequence (looked up): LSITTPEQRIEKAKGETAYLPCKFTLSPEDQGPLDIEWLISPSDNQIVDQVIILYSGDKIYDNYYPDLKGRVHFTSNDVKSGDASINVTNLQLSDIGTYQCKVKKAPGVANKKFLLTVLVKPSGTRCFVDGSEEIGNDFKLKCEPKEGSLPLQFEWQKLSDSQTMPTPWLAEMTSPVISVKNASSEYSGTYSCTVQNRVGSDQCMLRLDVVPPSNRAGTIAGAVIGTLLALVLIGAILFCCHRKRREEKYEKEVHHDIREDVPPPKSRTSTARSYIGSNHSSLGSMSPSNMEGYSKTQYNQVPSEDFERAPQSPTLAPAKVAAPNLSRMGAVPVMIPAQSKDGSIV

T2: CAR on cells (CHO-CAR; epithelial CAR of T84 and Caco-2 cells) (human), P78310
T2 chain: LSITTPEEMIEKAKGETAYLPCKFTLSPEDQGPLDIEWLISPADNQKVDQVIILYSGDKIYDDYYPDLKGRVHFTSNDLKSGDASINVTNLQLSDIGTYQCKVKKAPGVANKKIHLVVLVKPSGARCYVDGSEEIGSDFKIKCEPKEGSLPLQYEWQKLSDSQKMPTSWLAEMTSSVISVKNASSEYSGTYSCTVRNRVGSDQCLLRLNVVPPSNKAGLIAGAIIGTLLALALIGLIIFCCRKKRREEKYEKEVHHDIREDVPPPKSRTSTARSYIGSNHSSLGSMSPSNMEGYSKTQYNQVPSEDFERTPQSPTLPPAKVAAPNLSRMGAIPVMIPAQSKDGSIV

B1: adenoviral fiber knob protein Ad5, his-tagged (ligand)
chain: GAITVGNKNNDKLTLWTTPAPSPNCRLNAEKDAKLTLVLTKCGSQILATVSVLAVKGSLAPISGTVQSAHLIIRFDENGVLLNNSFLDPEYWNFRNGDLTEGTAYTNAVGFMPNLSAYPKSHGKTAKSNIVSQVYLNGDKTKPVTLTITLNGTQETGDTTPSAYSMSFSWDWSGHNYINEIFATSSYTFSYIAQE
B2: CAR on cells (CHO-CAR; epithelial CAR of T84 and Caco-2 cells), P78310 20-365 (receptor, human, UniProt P78310 20-365, looked up)
chain: T2 chain

Assays:
[1] = target: T1, murine CAR (epithelial CAR of wounded mouse colon) (mouse); assay: immunofluorescence of wounded mouse colon after I.P. dosing (colocalization of CAR and His tag)
[2] = target: T2, CAR on cells (CHO-CAR; epithelial CAR …); assay: aggregation of CHO-CAR cells alone; settings: remark: other sources report otherwise

Row | Binder | binding [1] | binding [2]
1 | B1 | binds | –
2 | B2 | – | no binding
